According to patent US8748376B2, “Stable formulations of peptides” (Novo Nordisk A/S, priority 2004, dated 2014):
For at least one compound, name, drawing or mass did not settle the structure.

Test: Thioflavin T (ThT) fibrillation assay (General procedure)
Format: physicochemical

**Q.** What does the source list for CCCCCCCCCCCCCCCC(=O)N[C@@H](CCC(=O)NCCCC[C@H](NC(=O)[C@H](C)NC(=O)[C@H](C)NC(=O)[C@H](CCC(N)=O)NC(=O)CNC(=O)[C@H](CCC(=O)O)NC(=O)[C@H](CC(C)C)NC(=O)[C@H](Cc1ccc(O)cc1)NC(=O)[C@H](CO)NC(=O)[C@H](CO)NC(=O)[C@@H](NC(=O)[C@H](CC(=O)O)NC(=O)[C@H](CO)NC(=O)[C@@H](NC(=O)[C@H](Cc1ccccc1)NC(=O)[C@@H](NC(=O)CNC(=O)[C@H](CCC(=O)O)NC(=O)[C@H](C)NC(=O)[C@@H](N)Cc1cnc[nH]1)[C@@H](C)O)[C@@H](C)O)C(C)C)C(=O)N[C@@H](CCC(=O)O)C(=O)N[C@@H](Cc1ccccc1)C(=O)N[C@H](C(=O)N[C@@H](C)C(=O)N[C@@H](Cc1c[nH]c2ccccc12)C(=O)N[C@@H](CC(C)C)C(=O)N[C@H](C(=O)N[C@@H](CCCNC(=N)N)C(=O)NCC(=O)N[C@@H](CCCNC(=N)N)C(=O)NCC(=O)O)C(C)C)[C@@H](C)CC)C(=O)O [liraglutide, Arg^34, Lys^26(N^ε-(γ-Glu(N^α-hexadecanoyl)))-GLP-1(7-37)]?
**A.** on-set of fibrillation (ThT fluorescence emission increases) (1.2 mM Liraglutide, 14 mg/ml propylene glycol, 40 mM phenol, 10 mM NaCl, pH 7.7, no buffer, no surfactant, 37° C., 960 rpm): approximately 10 hours; fibrillation (growth rate of the ThT fluorescence signal) (1.2 mM Liraglutide, 40 mM phenol, 14 mg/ml propylene glycol, 10 mM NaCl, pH 7.7, 200 ppm Polysorbate 20): attenuates the fibrillation; fibrillation (lag time) (1.67 mM Liraglutide, 58 mM phenol, 14 mg/ml propylene glycol, 8 mM sodium phosphate pH 7.7, 50 ppm Poloxamer 188): prolongs the lag time before on-set of fibrillation; fibrillation (1.67 mM Liraglutide, 58 mM phenol, 14 mg/ml propylene glycol, 8 mM sodium phosphate pH 7.7, 100 ppm Poloxamer 188): completely inhibits fibrillation during the assay time; ThT fluorescence signal versus reference (200 ppm Polysorbate 20 sample, after 40 hours of incubation): significantly smaller; fibrillation (ThT fluorescence signal) (same composition with 200 ppm Poloxamer 188, 37° C., 960 rpm): no fibrillation occurs
